{"source": "PubChem BioAssay AID540256", "about": "(National Center for Advancing Translational Sciences (NCATS), 2011)", "note": "In all, about 300,000 compounds went through this assay and about 3,700 (1.2%) were called active. The shares of active, inactive and inconclusive entries below differ from those in the screen. Calls follow the shape of the full dose curve; tested in HEK293 cells. Where the call is inconclusive, the potency comes from a doubtful curve fit. % is scaled to controls: 0 for no effect and ±100 for the full control effect; potency is read from the fitted curve at half-maximal effect.", "data": [{"assay": "qHTS for Inhibitors of binding or entry into cells for Lassa Virus; also: nearly all actives have a fitted effect of over 50% in size", "conditions": "Lassa virus pseudotype entry inhibition, cell reporter; activity change, negative = inhibition: at 37.9 µM (top of the series) unless noted", "values": [{"smiles": "Oc1ccc(-c2csc(-c3c[nH]c4ccccc34)n2)c(O)c1", "Potency": "inconclusive: 2.82 µM [activator, single point]"}, {"smiles": "COc1ccc(Cn2c(O)c(C=Nc3ccccc3C(=O)O)c3ccccc3c2=O)cc1", "Potency": "inconclusive: 0.501 µM [inhibitor, full curve, poor fit]"}, {"smiles": "COc1ccc(OC(C)C(=O)Nc2ccc([N+](=O)[O-])cc2)cc1", "note": "(configuration not stated)", "Potency": "inconclusive: 28.2 µM [inhibitor, partial curve, poor fit]"}, {"smiles": "COc1ccc(OC)c(CNC(=O)c2ccc3c(c2)c(C)c(C)n3Cc2ccc(Cl)cc2)c1", "Potency": "inconclusive: 20 µM [inhibitor, single point]"}, {"smiles": "C=CC(=O)Nc1ccc(Br)cc1", "Potency": "inconclusive: 10 µM [inhibitor, partial curve, poor fit]"}, {"smiles": "O=C(C1CCCN(S(=O)(=O)c2cccc3nsnc23)C1)N1CCN(c2ccccc2)CC1", "note": "(configuration not stated)", "Potency": "inconclusive: 12.6 µM [inhibitor, single point]"}, {"smiles": "Cc1cc(C(=O)Nc2ccccc2)oc(=O)c1", "Potency": "inconclusive: 3.16 µM [activator, full curve, poor fit]"}, {"smiles": "O=C1NCN(c2ccccc2)C12CCN(CCCC(c1ccc(F)cc1)c1ccc(F)cc1)CC2", "Potency": "active: 10.3 µM"}, {"smiles": "CCCSc1nnc(CNC(=O)C23CC4CC(CC(C4)C2)C3)n1Cc1ccccc1", "Potency": "inconclusive: 11.2 µM [inhibitor, partial curve, poor fit]"}, {"smiles": "CCc1ccc(NC(=O)CN(c2ccc(Cl)cc2)S(=O)(=O)c2ccsc2C(=O)OC)cc1", "Potency": "inconclusive: 35.5 µM [inhibitor, single point]"}, {"smiles": "Oc1ccc2ccccc2c1N=Nc1ccccn1", "Potency": "active: 8.91 µM"}, {"smiles": "CN(CCCNC(=O)C1CCC(=O)N1Cc1ccccc1Cl)c1ccccc1", "note": "(configuration not stated)", "Potency": "inconclusive: 6.51 µM [inhibitor, full curve, poor fit]"}, {"smiles": "COc1ccc([N+](=O)[O-])cc1N(CC(=O)N(C)C)S(C)(=O)=O", "Potency": "inconclusive: 11.2 µM [activator, partial curve]"}, {"smiles": "Cc1cccc(NC(=O)CSc2nccn2C)c1", "Potency": "inconclusive: 11.2 µM [activator, partial curve, poor fit]"}, {"smiles": "O=C1OCc2ccc(NC(=O)c3c(F)cccc3Cl)cc21", "activity change, negative = inhibition": "inactive: 0.848% [at 46.1 µM]"}, {"smiles": "CCOC(=O)C1CCN(c2cc(C)nc3ccc(OC)cc23)CC1", "Potency": "inconclusive: 35.5 µM [inhibitor, single point]"}, {"smiles": "NS(=O)(=O)c1ccc(-c2ccc3c(NC(=O)C4CC4)n[nH]c3c2)cc1", "Potency": "inconclusive: 0.0125 µM [activator, full curve, poor fit]"}, {"smiles": "O=C(CCC1N=C2c3ccccc3N=C(SCc3ccc(F)cc3)N2C1=O)NCCc1ccccc1", "note": "(configuration not stated)", "activity change, negative = inhibition": "inactive: -1.77% [at 46.1 µM]"}, {"smiles": "COc1ccc(NC(=O)C2CC2)cc1OC1CCCC1", "Potency": "inconclusive: 11.2 µM [inhibitor, single point]"}, {"smiles": "CC(C)OCCCn1c(=NC(=O)c2cccs2)c(C#N)cc2c(=O)n3ccccc3nc21", "Potency": "inconclusive: 35.5 µM [inhibitor, single point]"}, {"smiles": "COc1ccc(-n2c(-c3ccco3)nc3c(cnn3-c3ccc(Cl)cc3)c2=O)cc1", "Potency": "inconclusive: 10 µM [inhibitor, partial curve, poor fit]"}, {"smiles": "CC1(C)O[C@H]2[C@@H](O1)[C@@H](C(=O)Nc1ccccc1C(F)(F)F)O[C@@H]1OC(C)(C)O[C@@H]12", "Potency": "inconclusive: 15.8 µM [activator, partial curve, poor fit]"}, {"smiles": "Cc1ccc(S(=O)(=O)N2CCCCC2)cc1C(=O)NCCC1=CCCCC1", "Potency": "inconclusive: 4.47 µM [inhibitor, single point]"}, {"smiles": "CC1CCN(c2nc(CN3CCCCC3)nc3scc(-c4ccccc4)c23)CC1", "Potency": "inconclusive: 11.2 µM [inhibitor, partial curve]"}, {"smiles": "Cc1ccc(COc2ccccc2-c2cc(C(=O)N/N=C/c3cccnc3)[nH]n2)cc1", "Potency": "active: 8.91 µM"}, {"smiles": "Nc1nonc1C(=O)NCCNC(=O)c1ccc(Cl)cc1", "activity change, negative = inhibition": "inactive: -15.2%"}, {"smiles": "O=c1oc(-c2ccccc2F)nc2c1cnn2-c1ccccc1", "Potency": "inconclusive: 29.1 µM [inhibitor, single point]"}, {"smiles": "CCOC(=O)N1CCN(C(=O)c2cnn(-c3ccccc3)c2NC(=O)c2ccccc2F)CC1", "Potency": "inconclusive: 32.6 µM [inhibitor, single point]"}, {"smiles": "CCOC(=O)C1(Cc2cccc(Cl)c2)CCCN(C(=O)CCOC)C1", "note": "(configuration not stated)", "activity change, negative = inhibition": "inactive: -0.438%"}, {"smiles": "CC12Cc3ccc4ccccc4c3C=C1C[N+](C)(C)C2", "note": "(configuration not stated)", "activity change, negative = inhibition": "inactive: 20.8%"}, {"smiles": "CN(C)S(=O)(=O)c1cc(NC(=O)CN2CCN(c3ccccc3)CC2)ccc1Cl", "Potency": "active: 3.55 µM"}, {"smiles": "CC(=O)c1cccc(NC(=O)CSc2nc(=O)n(Cc3ccco3)c3c2CCC3)c1", "Potency": "inconclusive: 5.62 µM [inhibitor, single point]"}, {"smiles": "Nc1cccc2c1C(=O)N(C(=O)/C=C/c1cccc(Br)c1)C2=O", "Potency": "inconclusive: 11.2 µM [inhibitor, partial curve, poor fit]"}, {"smiles": "COc1cc(C(=O)NCCCc2nc3ccccc3n2Cc2cc(C)ccc2C)cc(OC)c1OC", "activity change, negative = inhibition": "inactive: 6.32%"}, {"smiles": "Cc1csc(=O)n1CC(=O)Nc1ccc(C(C)C)cc1", "Potency": "inconclusive: 2.51 µM [activator, partial curve, poor fit]"}, {"smiles": "Cc1ccc(C)c(CN2C(=O)c3ccccc3S(=O)(=O)c3ccc(C(=O)NCCC4=CCCCC4)cc32)c1", "activity change, negative = inhibition": "inactive: -21.7% [at 46.1 µM]"}, {"smiles": "Cc1cccc2cc(CN(Cc3ccco3)C(=O)Nc3cccc(C#N)c3)c(Cl)nc12", "Potency": "inconclusive: 11.6 µM [inhibitor, partial curve]"}, {"smiles": "CCCCN1CC(COCc2ccccc2)Oc2cccc(Oc3ccc(F)cc3OC)c2S1(=O)=O", "note": "(configuration not stated)", "Potency": "inconclusive: 12.5 µM [inhibitor, partial curve]"}, {"smiles": "COc1ccc(Nc2oc(-c3ccc(COc4ccccc4C)o3)nc2C#N)cc1", "activity change, negative = inhibition": "inactive: -4.09% [at 46.1 µM]"}, {"smiles": "O=C(N/N=C/c1ccc(O)cc1)/C(=C/c1ccccc1)CCO", "activity change, negative = inhibition": "inactive: -4.45%"}, {"smiles": "Cc1ccc(C(=O)c2cn(Cc3ccc(Cl)cc3)c3nc(C)ccc3c2=O)cc1", "Potency": "inconclusive: 12.6 µM [inhibitor, single point]"}, {"smiles": "Cc1cc(C)cc(N2C(=O)N(Cc3cccc(F)c3)c3ccccc3S2(=O)=O)c1", "activity change, negative = inhibition": "inactive: -17.1% [at 46.1 µM]"}, {"smiles": "CCOc1ccc(/C=C/[N+](=O)[O-])c2ccccc12", "Potency": "inconclusive: 29.1 µM [inhibitor, single point]"}, {"smiles": "Cc1nc2scc(C)n2c(=O)c1S(=O)(=O)NCCc1ccccc1", "Potency": "inconclusive: 1 µM [inhibitor, full curve, poor fit]"}, {"smiles": "Cc1ccc(NC(=O)CN2C(=O)CN=C(c3ccccc3)c3ccccc32)cc1", "Potency": "inconclusive: 35.5 µM [inhibitor, single point]"}, {"smiles": "CC(NCc1cccc(Cl)c1Cl)C(O)c1ccccc1", "note": "(configuration not stated)", "activity change, negative = inhibition": "inactive: 7.85%"}, {"smiles": "Nc1c(C(=O)Nc2cccc(Cl)c2Cl)sc2nc(-c3cccnc3)ccc12", "activity change, negative = inhibition": "inactive: 28.9%"}, {"smiles": "CC(=O)c1cccc(NC(=O)NC(C)c2ccncc2)c1", "note": "(configuration not stated)", "Potency": "inconclusive: 29.1 µM [activator, single point]"}, {"smiles": "CC1CN(c2nc(-c3ccc(Br)cc3)nnc2-c2ccccc2)CC(C)N1", "note": "(configuration not stated)", "Potency": "inconclusive: 1.78 µM [activator, partial curve]"}, {"smiles": "Fc1c(F)c(F)c(/C=N/NC(=S)Nc2cccnc2)c(F)c1F", "Potency": "inconclusive: 15.8 µM [inhibitor, single point]"}, {"smiles": "CC1CN(CCCCOc2ccc(Cl)c3ccccc23)CC(C)O1", "note": "(configuration not stated)", "Potency": "inconclusive: 20 µM [inhibitor, partial curve, poor fit]"}, {"smiles": "CCNC(=O)NC(=O)C(C)OC(=O)c1oc2ccc(OCC)cc2c1C", "note": "(configuration not stated)", "activity change, negative = inhibition": "inactive: 7.77%"}, {"smiles": "CC(OC(=O)COc1ccc(Nc2ccccc2)cc1)C(=O)N(C)c1ccccc1", "note": "(configuration not stated)", "activity change, negative = inhibition": "inactive: -3.51% [at 46.1 µM]"}, {"smiles": "Cc1ccc(OCc2nc(-c3ccc(C(=O)NCc4ccc(OC(C)C)cc4)cc3)oc2C)cc1", "Potency": "inconclusive: 2.82 µM [inhibitor, full curve, poor fit]"}, {"smiles": "CCN(CC)c1ccc(S(=O)(=O)N2CCOCC2)cc1NC(=O)COC(=O)COc1ccccc1C", "Potency": "inconclusive: 35.5 µM [inhibitor, single point]"}, {"smiles": "Cc1cccn2c(=O)c(C(=O)NC(C)c3ccccc3)cnc12", "note": "(configuration not stated)", "Potency": "inconclusive: 0.562 µM [activator, partial curve, poor fit]"}, {"smiles": "CSc1ccc(/C=N/NC(=O)CNc2cccc3ccccc23)cc1", "activity change, negative = inhibition": "inactive: 9.42%"}, {"smiles": "COc1ccc(OC)c(N2C(=O)CC(C(C)c3ccccc3)C2=O)c1", "note": "(configuration not stated)", "Potency": "inconclusive: 12.6 µM [inhibitor, partial curve, poor fit]"}, {"smiles": "CCN(CC)S(=O)(=O)c1ccc2nc(NC(=O)c3cncc(Br)c3)sc2c1", "activity change, negative = inhibition": "inactive: 24.2% [at 46.1 µM]"}, {"smiles": "CCOc1ccc(C(=O)Nc2cnn(Cc3ccc(Cl)c(Cl)c3)c2)cc1", "Potency": "inconclusive: 11.6 µM [inhibitor, partial curve, poor fit]"}, {"smiles": "O=C(Nc1nc2ccccc2s1)c1cnccn1", "Potency": "inconclusive: 2.91 µM [inhibitor, full curve]"}, {"smiles": "COc1ccc(N2CC(C(=O)N3CCCC(C)C3)CC2=O)cc1", "note": "(configuration not stated)", "activity change, negative = inhibition": "inactive: -6.45% [at 46.1 µM]"}, {"smiles": "CCOc1ccc(Cn2c3ccc(OC)cc3c3nc4ccccc4nc32)cc1OC", "Potency": "inconclusive: 14.1 µM [inhibitor, partial curve, poor fit]"}, {"smiles": "N#Cc1c(-c2ccccc2)nc(SCc2ccc([N+](=O)[O-])cc2)[nH]c1=O", "Potency": "inconclusive: 0.794 µM [activator, single point]"}, {"smiles": "Cc1cc2cc(C#N)c(NCCNC(=S)NCCCN3CCOCC3)nc2cc1C", "activity change, negative = inhibition": "inactive: 1.56%"}, {"smiles": "CCOc1ccc(NC(=O)Cn2c(=O)n(CC(=O)NCc3ccccc3Cl)c(=O)c3sccc32)cc1", "Potency": "inconclusive: 12.6 µM [inhibitor, single point]"}, {"smiles": "Cn1nnnc1SCC(=O)NCC(=O)c1ccccc1", "Potency": "inconclusive: 2.59 µM [activator, partial curve, poor fit]"}]}]}
